# According to paper PMC3548793:
# Amino acid sequences for entries named in this document (tags omitted).
# UniProt P68400: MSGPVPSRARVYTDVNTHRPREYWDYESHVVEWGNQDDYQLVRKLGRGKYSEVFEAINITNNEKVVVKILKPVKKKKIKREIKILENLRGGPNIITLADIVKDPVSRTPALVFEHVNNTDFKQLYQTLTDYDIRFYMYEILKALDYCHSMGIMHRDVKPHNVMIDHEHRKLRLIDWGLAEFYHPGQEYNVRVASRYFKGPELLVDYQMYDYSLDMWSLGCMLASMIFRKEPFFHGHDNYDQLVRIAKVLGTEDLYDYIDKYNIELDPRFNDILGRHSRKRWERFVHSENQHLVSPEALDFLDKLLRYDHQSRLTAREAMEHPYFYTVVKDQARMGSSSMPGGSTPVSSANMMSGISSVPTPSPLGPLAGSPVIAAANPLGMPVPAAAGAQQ
# These are yes or no findings as the source states them, for the method shown. In cells and extracts the contact can be indirect. Some entries that bind do so weakly or less than the wild type. Tags and fused reporters may be left off the sequences shown.
# Target: T1, GFP-Sec31 (human) (UniProt O94979)
# T1 sequence: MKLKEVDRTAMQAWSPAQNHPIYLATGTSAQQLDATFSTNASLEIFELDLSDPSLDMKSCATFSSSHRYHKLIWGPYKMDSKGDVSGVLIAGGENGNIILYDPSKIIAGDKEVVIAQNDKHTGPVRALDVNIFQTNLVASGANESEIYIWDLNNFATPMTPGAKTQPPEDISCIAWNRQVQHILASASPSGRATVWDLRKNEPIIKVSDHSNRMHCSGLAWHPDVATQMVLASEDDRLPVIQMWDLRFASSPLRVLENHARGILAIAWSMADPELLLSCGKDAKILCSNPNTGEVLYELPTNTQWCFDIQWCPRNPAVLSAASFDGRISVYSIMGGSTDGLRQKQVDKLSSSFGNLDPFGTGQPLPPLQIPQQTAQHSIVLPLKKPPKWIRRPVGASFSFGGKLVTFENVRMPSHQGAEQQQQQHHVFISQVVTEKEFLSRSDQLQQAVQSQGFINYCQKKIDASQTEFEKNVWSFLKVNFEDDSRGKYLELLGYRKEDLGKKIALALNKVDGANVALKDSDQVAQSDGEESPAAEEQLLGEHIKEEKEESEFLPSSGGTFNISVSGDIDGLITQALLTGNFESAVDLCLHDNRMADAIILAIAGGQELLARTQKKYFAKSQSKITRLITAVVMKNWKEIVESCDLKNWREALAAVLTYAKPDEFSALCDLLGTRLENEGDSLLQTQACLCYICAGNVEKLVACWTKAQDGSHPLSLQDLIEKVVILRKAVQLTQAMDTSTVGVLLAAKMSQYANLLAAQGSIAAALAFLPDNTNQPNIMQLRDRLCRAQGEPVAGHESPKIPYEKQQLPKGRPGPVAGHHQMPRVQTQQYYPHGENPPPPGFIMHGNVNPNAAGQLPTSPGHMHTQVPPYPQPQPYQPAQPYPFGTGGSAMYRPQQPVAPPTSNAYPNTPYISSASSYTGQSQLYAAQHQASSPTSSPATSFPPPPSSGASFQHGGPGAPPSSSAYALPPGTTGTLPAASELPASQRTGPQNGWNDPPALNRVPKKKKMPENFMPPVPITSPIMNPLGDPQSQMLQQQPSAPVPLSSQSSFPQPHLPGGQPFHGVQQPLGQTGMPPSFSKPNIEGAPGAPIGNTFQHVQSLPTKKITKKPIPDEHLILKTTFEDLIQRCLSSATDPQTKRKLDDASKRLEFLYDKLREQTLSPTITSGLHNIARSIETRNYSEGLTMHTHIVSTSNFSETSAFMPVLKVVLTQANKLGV
# Test: co-IP; HEK293 cells co-transfected with Myc-CK2 and GFP-Sec31, 48 h; lysed with 1 mM Ca++ in immunoprecipitation buffer; GFP-tagged protein immunoprecipitated with anti-GFP beads, blot with anti-Myc
substance,measurement,value
Myc-CK2 alpha 1 (from UniProt P68400 1-391) (enzyme),binding,binds
